According to patent publication US7727977B2, “Kynurenine 3-hydroxylase inhibitors for the treatment of diabetes” (Merck Patent Gesellschaft mit beschrankter Haftung, priority 2003, dated 2010):

System: primary hepatocytes
Assay: Hepatic glucose production, basal lactate/pyruvate 2 hours, in primary hepatocytes
Format: cell-based, Wistar rats
Conditions: Basal Lact/Pyr 2 hours
Description: Study of the Effect on Glucose Production by the Liver Materials and Method:
After washing in pH 7.4 PBS buffer, the cells are incubated for two hours at 37° C. in a Krebs buffer free of glucose and of insulin, containing lactate/pyruvate (10/1 mM) in the presence or absence of the test compounds. 10 μM MICA (5-methoxyindole-2-carboxylic acid) is used as reference substance. Two identical experiments are performed (Table III-2).
The protein assay is performed on the rest of the incubation medium via the Lowry method (BIO-RAD Dc protein assay, BIO-RAD 5000116).
The results are expressed as nmoles of glucose produced per […] of proteins. The statistical test used is the t test.

Q: Which results are given for “2-(2′-naphthylthio)-4-phenyl-4-oxobutanoic acid [Ih-1]”?
A: Proteins % of control (1 μM): 94 % of control; Proteins % of control (10 μM): 101 % of control; Proteins % of control (100 μM): 96 % of control
